Binding data for 3 molecules are collected here from patent US20220033904A1.

The target in assay [1] is T1, TMEM79 (mouse (Mus musculus)) (UniProt Q9D709).
T1 sequence: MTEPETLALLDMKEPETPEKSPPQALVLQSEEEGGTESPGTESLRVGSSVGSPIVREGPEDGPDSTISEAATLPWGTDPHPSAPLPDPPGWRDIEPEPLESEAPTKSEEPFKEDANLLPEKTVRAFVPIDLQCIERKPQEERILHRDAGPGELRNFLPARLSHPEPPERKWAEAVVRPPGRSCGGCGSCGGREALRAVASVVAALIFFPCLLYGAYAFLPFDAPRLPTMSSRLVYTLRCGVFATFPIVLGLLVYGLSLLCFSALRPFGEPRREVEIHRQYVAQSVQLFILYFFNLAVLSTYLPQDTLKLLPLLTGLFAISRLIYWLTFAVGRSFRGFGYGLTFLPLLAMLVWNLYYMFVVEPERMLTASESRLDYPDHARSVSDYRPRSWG
Nature of the assay: co-IP, immunoblot (FIG. 5C).

For assay [2], the target named is T2, USP8CΔ (UniProt P40818).
T2 sequence (looked up): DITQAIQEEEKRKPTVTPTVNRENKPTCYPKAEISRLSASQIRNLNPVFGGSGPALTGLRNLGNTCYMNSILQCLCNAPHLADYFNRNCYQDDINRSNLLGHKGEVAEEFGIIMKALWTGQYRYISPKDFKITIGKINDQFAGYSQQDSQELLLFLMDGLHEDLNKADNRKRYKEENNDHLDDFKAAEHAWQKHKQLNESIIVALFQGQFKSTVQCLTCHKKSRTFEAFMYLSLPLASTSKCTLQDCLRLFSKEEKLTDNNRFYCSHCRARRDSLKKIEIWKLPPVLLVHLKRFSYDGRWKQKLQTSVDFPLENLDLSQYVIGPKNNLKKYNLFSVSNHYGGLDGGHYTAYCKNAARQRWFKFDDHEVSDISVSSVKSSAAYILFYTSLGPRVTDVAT
Nature of the assay: co-IP, immunoblot (FIG. 5C). (A western blot detects proteins with antibodies after separation by electrophoresis.)

Assay [3] addresses T3, USP8C (UniProt P40818).
T3 sequence (looked up): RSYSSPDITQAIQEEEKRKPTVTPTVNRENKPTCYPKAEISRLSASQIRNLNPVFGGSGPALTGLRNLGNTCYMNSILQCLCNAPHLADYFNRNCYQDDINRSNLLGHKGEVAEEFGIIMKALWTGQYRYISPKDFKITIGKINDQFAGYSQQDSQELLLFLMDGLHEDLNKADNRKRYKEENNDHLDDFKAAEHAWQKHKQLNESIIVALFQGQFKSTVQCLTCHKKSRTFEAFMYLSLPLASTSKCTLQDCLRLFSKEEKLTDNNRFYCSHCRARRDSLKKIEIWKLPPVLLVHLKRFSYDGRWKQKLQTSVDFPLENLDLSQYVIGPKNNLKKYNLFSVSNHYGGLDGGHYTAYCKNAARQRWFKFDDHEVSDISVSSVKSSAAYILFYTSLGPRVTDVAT
Briefly: co-IP, immunoblot (FIG. 5C and 5E).

Assay [4] deals with T4, USP8 (UniProt P40818).
T4 sequence (looked up): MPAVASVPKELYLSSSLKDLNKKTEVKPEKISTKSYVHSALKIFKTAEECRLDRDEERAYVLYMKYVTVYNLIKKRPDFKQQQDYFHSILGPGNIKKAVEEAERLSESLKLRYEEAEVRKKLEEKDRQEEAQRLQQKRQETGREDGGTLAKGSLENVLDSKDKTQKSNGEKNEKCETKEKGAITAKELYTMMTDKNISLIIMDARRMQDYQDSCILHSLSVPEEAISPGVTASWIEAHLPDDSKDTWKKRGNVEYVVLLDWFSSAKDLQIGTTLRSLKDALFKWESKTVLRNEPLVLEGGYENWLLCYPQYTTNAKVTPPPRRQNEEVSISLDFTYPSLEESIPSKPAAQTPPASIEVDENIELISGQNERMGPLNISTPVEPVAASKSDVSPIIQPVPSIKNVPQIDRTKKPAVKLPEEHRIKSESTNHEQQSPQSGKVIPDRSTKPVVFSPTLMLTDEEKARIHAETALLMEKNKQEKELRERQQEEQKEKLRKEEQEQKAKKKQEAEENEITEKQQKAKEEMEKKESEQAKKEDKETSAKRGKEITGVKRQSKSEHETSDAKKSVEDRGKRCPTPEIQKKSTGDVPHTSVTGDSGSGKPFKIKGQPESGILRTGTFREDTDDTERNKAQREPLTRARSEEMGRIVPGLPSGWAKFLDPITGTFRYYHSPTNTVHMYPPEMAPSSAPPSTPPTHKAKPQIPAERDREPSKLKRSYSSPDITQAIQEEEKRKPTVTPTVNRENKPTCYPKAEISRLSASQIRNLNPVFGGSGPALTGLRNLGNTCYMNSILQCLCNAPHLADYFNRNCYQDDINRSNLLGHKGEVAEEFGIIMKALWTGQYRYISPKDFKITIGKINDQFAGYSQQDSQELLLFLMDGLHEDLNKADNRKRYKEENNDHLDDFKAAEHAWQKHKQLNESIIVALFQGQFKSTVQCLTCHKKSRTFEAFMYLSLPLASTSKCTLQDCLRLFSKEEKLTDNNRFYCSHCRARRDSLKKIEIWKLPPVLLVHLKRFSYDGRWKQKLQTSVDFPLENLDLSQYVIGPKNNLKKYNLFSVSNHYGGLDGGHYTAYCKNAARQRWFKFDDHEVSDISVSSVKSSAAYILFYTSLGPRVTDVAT
Briefly: co-IP in cells with all 10 FZD genes deleted (FIG. 11F).

The target in assay [5] is T1, TMEM79 (mouse (Mus musculus)). Briefly: co-IP in FZD null cells (FIG. 11F).

These are yes or no findings as the source states them, for the method shown. In cells and extracts the contact can be indirect. Some binding calls cover weakened binding; strength is not graded here.

B1: USP8C (enzyme, UniProt P40818 715-1118, looked up)
chain: RSYSSPDITQAIQEEEKRKPTVTPTVNRENKPTCYPKAEISRLSASQIRNLNPVFGGSGPALTGLRNLGNTCYMNSILQCLCNAPHLADYFNRNCYQDDINRSNLLGHKGEVAEEFGIIMKALWTGQYRYISPKDFKITIGKINDQFAGYSQQDSQELLLFLMDGLHEDLNKADNRKRYKEENNDHLDDFKAAEHAWQKHKQLNESIIVALFQGQFKSTVQCLTCHKKSRTFEAFMYLSLPLASTSKCTLQDCLRLFSKEEKLTDNNRFYCSHCRARRDSLKKIEIWKLPPVLLVHLKRFSYDGRWKQKLQTSVDFPLENLDLSQYVIGPKNNLKKYNLFSVSNHYGGLDGGHYTAYCKNAARQRWFKFDDHEVSDISVSSVKSSAAYILFYTSLGPRVTDVAT
As for B1, the binding result in assay [1] is on record as “binds”.

B2: TMEM79 (protein, not shown: small tags and cut ends)
chain: MTEPETLALLDMKEPETPEKSPPQALVLQSEEEGGTESPGTESLRVGSSVGSPIVREGPEDGPDSTISEAATLPWGTDPHPSAPLPDPPGWRDIEPEPLESEAPTKSEEPFKEDANLLPEKTVRAFVPIDLQCIERKPQEERILHRDAGPGELRNFLPARLSHPEPPERKWAEAVVRPPGRSCGGCGSCGGREALRAVASVVAALIFFPCLLYGAYAFLPFDAPRLPTMSSRLVYTLRCGVFATFPIVLGLLVYGLSLLCFSALRPFGEPRREVEIHRQYVAQSVQLFILYFFNLAVLSTYLPQDTLKLLPLLTGLFAISRLIYWLTFAVGRSFRGFGYGLTFLPLLAMLVWNLYYMFVVEPERMLTASESRLDYPDHARSVSDYRPRSWG
Take B2: the binding entry in assay [2], in assay [3] and in assay [4] was “binds” in each case.

B3: USP8 (enzyme, UniProt P40818 1-1118, looked up, not shown: small tags and cut ends)
chain: MPAVASVPKELYLSSSLKDLNKKTEVKPEKISTKSYVHSALKIFKTAEECRLDRDEERAYVLYMKYVTVYNLIKKRPDFKQQQDYFHSILGPGNIKKAVEEAERLSESLKLRYEEAEVRKKLEEKDRQEEAQRLQQKRQETGREDGGTLAKGSLENVLDSKDKTQKSNGEKNEKCETKEKGAITAKELYTMMTDKNISLIIMDARRMQDYQDSCILHSLSVPEEAISPGVTASWIEAHLPDDSKDTWKKRGNVEYVVLLDWFSSAKDLQIGTTLRSLKDALFKWESKTVLRNEPLVLEGGYENWLLCYPQYTTNAKVTPPPRRQNEEVSISLDFTYPSLEESIPSKPAAQTPPASIEVDENIELISGQNERMGPLNISTPVEPVAASKSDVSPIIQPVPSIKNVPQIDRTKKPAVKLPEEHRIKSESTNHEQQSPQSGKVIPDRSTKPVVFSPTLMLTDEEKARIHAETALLMEKNKQEKELRERQQEEQKEKLRKEEQEQKAKKKQEAEENEITEKQQKAKEEMEKKESEQAKKEDKETSAKRGKEITGVKRQSKSEHETSDAKKSVEDRGKRCPTPEIQKKSTGDVPHTSVTGDSGSGKPFKIKGQPESGILRTGTFREDTDDTERNKAQREPLTRARSEEMGRIVPGLPSGWAKFLDPITGTFRYYHSPTNTVHMYPPEMAPSSAPPSTPPTHKAKPQIPAERDREPSKLKRSYSSPDITQAIQEEEKRKPTVTPTVNRENKPTCYPKAEISRLSASQIRNLNPVFGGSGPALTGLRNLGNTCYMNSILQCLCNAPHLADYFNRNCYQDDINRSNLLGHKGEVAEEFGIIMKALWTGQYRYISPKDFKITIGKINDQFAGYSQQDSQELLLFLMDGLHEDLNKADNRKRYKEENNDHLDDFKAAEHAWQKHKQLNESIIVALFQGQFKSTVQCLTCHKKSRTFEAFMYLSLPLASTSKCTLQDCLRLFSKEEKLTDNNRFYCSHCRARRDSLKKIEIWKLPPVLLVHLKRFSYDGRWKQKLQTSVDFPLENLDLSQYVIGPKNNLKKYNLFSVSNHYGGLDGGHYTAYCKNAARQRWFKFDDHEVSDISVSSVKSSAAYILFYTSLGPRVTDVAT
Take B3: in assay [5], the binding entry is given as “binds”.
